Reference: PubChem BioAssay AID1487 (National Center for Advancing Translational Sciences (NCATS), 2009)
Some of the results follow. Further columns of the screen follow, without active or inactive calls. The list favours compounds with an active or inconclusive main result. The note in brackets gives the kind of curve behind each potency; many fits are weak.

Assay: qHTS Assay for Modulators of Lamin A Splicing
Settings: HeLa LMNA splicing GFP/RFP minigene ratio, 48 h
How it was run: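 S3 HeLa stable clones carrying a lamin A-EGFP splicing minigene plus DsRed2 were seeded at 600 cells/well in Opti-MEM with 2% FBS, pin-dosed and incubated 48 h at 37°C. Acumen cytometry (488 nm) gave the GFP/RFP total-intensity ratio.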

[1] = measured here: GFP splicing reporter channel
[2] = measured here: RFP viability control channel

Which results are given for `CN(C)c1ccc(C(CNC(=O)c2ccc(F)cc2)c2c[nH]c3ccccc23)cc1` (stereo unspecified)?
AC50 [1]: 7.08 µM [rising, partial curve, poor fit]; AC50 [2]: 20 µM [rising, single point]

Which AC50 [2] does the source give for `O=C(COc1ccc2c(-c3ccccc3)cc(=O)oc2c1)NCc1cccs1` here?
Its AC50 is 0.0891 µM [falling, full curve, poor fit].

Which AC50 [1] does the source give for `Cc1cc(C)c(C)c(OCCOCCNCc2ccccc2)c1` here?
Its AC50 is 10 µM [rising, partial curve].

And the AC50 [2]?
Its AC50 is 12.6 µM [rising, partial curve].

For `O=C(NC1CC1)c1ccc(S(=O)(=O)NC2CCCCCC2)cc1`, which AC50 [2] is on record?
Its AC50 is 12.6 µM [rising, partial curve, poor fit].

Which AC50 [1] does the source give for `Cc1cc(C(=O)CN(Cc2ccc(F)cc2)S(=O)(=O)c2ccc3c(c2)OCCO3)c(C)n1C` here?
The AC50 was 6.31 µM [rising, full curve, poor fit].

And the AC50 [2]?
The AC50 was 12.6 µM [rising, partial curve].

What does the source list for `Cc1ccc(CNC(=O)c2ccc(-n3c(C)cc4c3CCCC4)cc2)cc1`?
AC50 [1]: 31.6 µM [falling, partial curve]; AC50 [2]: 25.1 µM [falling, partial curve]

Which AC50 [1] does the source give for `CCS(=O)(=O)c1ccc2oc(SCC(=O)N3CCCCC3)nc2c1` here?
The AC50 was 2.51 µM [falling, partial curve].

What about the AC50 [2] of the same compound?
Its AC50 is 3.55 µM [falling, partial curve].

Which AC50 [2] does the source give for `C/C(=N/NC(N)=S)c1ccc(Br)s1` here?
Its AC50 is 25.1 µM [falling, single point].

Which AC50 [1] does the source give for `COc1ccc2oc(-c3ccc(C)c(NC(=O)c4cccnc4)c3)nc2c1` here?
The AC50 was 1.26 µM [falling, full curve, poor fit].

And the AC50 [2]?
The AC50 was 0.891 µM [falling, full curve, poor fit].

For `CC1(C)C2CC=C(/C=N/NC(=O)C3CC3)C1C2` (stereo unspecified), which AC50 [1] is on record?
The AC50 was 1 µM [falling, full curve, poor fit].

For `COc1cccc(N(C(=O)c2ccn[nH]2)C2(C(=O)Nc3c(C)cccc3C)CCCCC2)c1`, which AC50 [2] is on record?
Its AC50 is 20 µM [rising, partial curve, poor fit].

Which AC50 [1] does the source give for `Cc1ccc(OCC(=O)Nc2ccc3nc(SCC(=O)N4CCCC4)sc3c2)cc1` here?
The AC50 was 15.8 µM [falling, single point].

And the AC50 [2]?
The AC50 was 12.6 µM [falling, partial curve, poor fit].

Which AC50 [1] does the source give for `Oc1ccc(Nc2nc(N3CCCC3)c3ccccc3n2)cc1` here?
The AC50 was 10 µM [rising, partial curve, poor fit].

And the AC50 [2]?
Its AC50 is 11.2 µM [rising, partial curve].

What does the source list for `COc1ccc(C(c2nnnn2CCc2ccccc2)N2CCN(C3CCCC3)CC2)cc1` (stereo unspecified)?
AC50 [1]: 35.5 µM [falling, single point]; AC50 [2]: 35.5 µM [falling, single point]

With `Cc1ccccc1NC(=O)c1ccc(N/N=C/c2ccccc2O)c([N+](=O)[O-])c1` as the compound, how does the AC50 [1] read?
The AC50 was 35.5 µM [falling, single point].

What about the AC50 [2] of the same compound?
The AC50 was 35.5 µM [falling, single point].

Which AC50 [1] does the source give for `Cc1cc(C)c2sc(N(Cc3cccnc3)C(=O)CCS(=O)(=O)c3ccccc3)nc2c1` here?
The AC50 was 11.2 µM [falling, partial curve, poor fit].

And the AC50 [2]?
Its AC50 is 35.5 µM [falling, partial curve].

Which AC50 [1] does the source give for `Cc1ccc(Cl)cc1NC(=O)COC(=O)CC(C)(C)C` here?
Its AC50 is 35.5 µM [rising, single point].

What about the AC50 [2] of the same compound?
The AC50 was 22.4 µM [rising, partial curve, poor fit].

Which AC50 [2] does the source give for `CCOC(=O)c1c(NC(C)=O)sc2c(O)cccc12` here?
The AC50 was 35.5 µM [rising, single point].

For `O=C(NCc1cccc(C(F)(F)F)c1)C1CC(c2c(Cl)cccc2Cl)=NO1` (stereo unspecified), which AC50 [2] is on record?
The AC50 was 5.62 µM [falling, single point].

For `Cc1c(NC(=S)SCc2ccccc2)c(=O)n(-c2ccccc2)n1C`, which AC50 [2] is on record?
Its AC50 is 12.6 µM [rising, partial curve].

Which AC50 [2] does the source give for `CCOc1ccccc1OCC(=O)N/N=C(\C)Cc1ccc(OC)cc1` here?
Its AC50 is 6.31 µM [rising, full curve].

With `Cc1cc(C)cc(CSc2nnc(C)c(=O)[nH]2)c1` as the compound, how does the AC50 [1] read?
Its AC50 is 8.91 µM [rising, partial curve, poor fit].

For `CC(=O)C1=C(C)NC(SCC(=O)c2cc(Cl)ccc2Cl)=C(C#N)C1c1ccco1` (stereo unspecified), which AC50 [1] is on record?
Its AC50 is 11.2 µM [rising, partial curve].

And the AC50 [2]?
Its AC50 is 14.1 µM [rising, single point].

For `Cc1ccc(OCCn2cc(/C=C(\C#N)C(=O)NCC3CCCO3)c3ccccc32)cc1` (stereo unspecified), which AC50 [2] is on record?
Its AC50 is 11.2 µM [rising, partial curve, poor fit].

With `CCOc1cc(/C=C2\SC(=N)N(c3nccs3)C2=O)ccc1OCCN1CCOCC1` as the compound, how does the AC50 [1] read?
Its AC50 is 5.62 µM [rising, full curve, poor fit].

And the AC50 [2]?
The AC50 was 7.94 µM [rising, partial curve].

What does the source list for `Cc1ccc(NS(=O)(=O)c2ccc3[nH]c4c(c3c2)CCCCCC4)cc1Cl`?
AC50 [1]: 17.8 µM [falling, partial curve]; AC50 [2]: 15.8 µM [falling, single point]

For `CC(=O)c1c(C)oc2ccc(N(C(=O)c3ccncc3)S(=O)(=O)c3ccccc3)cc12`, which AC50 [2] is on record?
The AC50 was 20 µM [falling, partial curve, poor fit].

With `CCOC(=O)C(NC(=O)c1cccc(Cl)c1)(OCc1ccccc1)C(F)(F)F` (stereo unspecified) as the compound, how does the AC50 [1] read?
Its AC50 is 12.6 µM [rising, single point].

And the AC50 [2]?
The AC50 was 35.5 µM [rising, single point].

For `Cc1c(C(=O)NCc2ccccc2)sc2nc3n(c(=O)c12)CCC3`, which AC50 [1] is on record?
The AC50 was 0.0562 µM [falling, full curve, poor fit].

Which AC50 [1] does the source give for `CCCCC(=O)NNC(=S)NC(=O)c1cccc([N+](=O)[O-])c1` here?
The AC50 was 12.6 µM [falling, single point].

Which AC50 [2] does the source give for `Cc1ccc(C(=O)N/C(=C\c2ccccc2)C(=O)NCCCn2ccnc2)cc1` here?
Its AC50 is 3.98 µM [falling, full curve, poor fit].

With `CCOc1c(Cl)cc(C(=O)Nc2ccccc2C(=O)O)cc1Cl` as the compound, how does the AC50 [1] read?
Its AC50 is 3.16 µM [falling, full curve].

With `CSc1nc2sc3c(c2c(=O)n1-c1ccccc1C)CCCC3` as the compound, how does the AC50 [2] read?
Its AC50 is 11.2 µM [rising, single point].

Which AC50 [1] does the source give for `CCC(=O)N1CCN(c2ccc(Cl)cc2NC(=O)Cc2ccccc2)CC1` here?
Its AC50 is 10 µM [rising, partial curve].

For `Cc1cccc(NC(=S)N=Nc2c(O)[nH]c3ccccc23)c1`, which AC50 [1] is on record?
The AC50 was 14.1 µM [rising, partial curve].

What about the AC50 [2] of the same compound?
The AC50 was 22.4 µM [rising, partial curve].

With `Cc1cccc(N2CCN(C(=O)CN(C)S(=O)(=O)c3ccc4c(c3)CCC(=O)N4)CC2)c1C` as the compound, how does the AC50 [2] read?
The AC50 was 35.5 µM [rising, single point].

What does the source list for `C=CCNC(=O)/C(C#N)=C\c1cc(Cl)c(O)c(OCC)c1`?
AC50 [1]: 31.6 µM [rising, single point]; AC50 [2]: 35.5 µM [rising, single point]

For `C/C(=N\OCc1ccccc1)c1c(O)cc(C(C)C)n(-c2ccccc2)c1=O`, which AC50 [1] is on record?
The AC50 was 12.6 µM [rising, single point].

What about the AC50 [2] of the same compound?
The AC50 was 12.6 µM [rising, single point].

With `CCC(C(=O)Nc1ccc(OC)c(Cl)c1)c1ccccc1` (stereo unspecified) as the compound, how does the AC50 [2] read?
Its AC50 is 14.1 µM [rising, partial curve].

Which AC50 [2] does the source give for `CN(C)S(=O)(=O)Oc1cccc(C(=O)Nc2ccc([N+](=O)[O-])cc2)c1` here?
Its AC50 is 25.1 µM [falling, partial curve, poor fit].

Which AC50 [2] does the source give for `CCOC(=O)C1=C(c2ccccc2)NC(SCC(=O)Nc2ccc(C)cc2)=C(C#N)C1c1ccco1` (stereo unspecified) here?
The AC50 was 35.5 µM [rising, single point].

With `Cc1onc(-c2ccccc2)c1C(=O)N/N=C/C(Br)=C/c1ccccc1` as the compound, how does the AC50 [1] read?
Its AC50 is 5.01 µM [rising, partial curve].

What about the AC50 [2] of the same compound?
Its AC50 is 11.2 µM [rising, partial curve].

Which AC50 [2] does the source give for `COc1ccc(-c2cc(C3CCN(Cc4cccc(C(F)(F)F)c4)CC3)[nH]n2)cc1` here?
The AC50 was 0.00355 µM [rising, full curve, poor fit].

For `O=C(NCC(c1ccco1)S(=O)(=O)c1ccc(Cl)cc1)c1ccccc1F` (stereo unspecified), which AC50 [2] is on record?
The AC50 was 0.501 µM [rising, full curve, poor fit].

With `Brc1cccc(-c2cnc3n2CCCCC3)c1` as the compound, how does the AC50 [2] read?
Its AC50 is 11.2 µM [rising, partial curve, poor fit].

Which results are given for `O=Nc1c(-c2c(O)[nH]c3cc(Br)ccc23)[nH]c2ccccc12`?
AC50 [1]: 5.01 µM [falling, full curve]; AC50 [2]: 2.82 µM [falling, full curve]

What does the source list for `CC(=O)Oc1c(C(=O)c2nnc(C)o2)c(=O)n(Cc2ccccc2)c2ccccc12`?
AC50 [1]: 10 µM [rising, partial curve]; AC50 [2]: 12.6 µM [rising, partial curve]

With `CC(C)c1ccc(O)c(NC(=O)c2cncc(Br)c2)c1` as the compound, how does the AC50 [2] read?
The AC50 was 10 µM [rising, partial curve, poor fit].

With `Cc1nc(C)c(C(=O)NCc2ccc(Cl)cc2)o1` as the compound, how does the AC50 [2] read?
The AC50 was 10 µM [rising, partial curve].

With `O=S(=O)(Nc1cccc(-c2ccc(N3CCCCC3)nn2)c1)c1cccc(F)c1` as the compound, how does the AC50 [1] read?
The AC50 was 0.0112 µM [falling, full curve, poor fit].

For `O=C(NCCN1CCOCC1)c1cc(Sc2ccccc2Cl)nc2ccccc12`, which AC50 [2] is on record?
Its AC50 is 5.62 µM [rising, full curve, poor fit].

For `CCOC(=O)c1sc(N2N=C(C)/C(=C\c3ccc(OCC(=O)OC)cc3)C2=O)nc1C`, which AC50 [2] is on record?
Its AC50 is 1.41 µM [rising, full curve, poor fit].

For `Cc1nn(C)c(C)c1CNC(=O)/C=C/c1ccccc1F`, which AC50 [1] is on record?
The AC50 was 10 µM [rising, partial curve].

What about the AC50 [2] of the same compound?
The AC50 was 14.1 µM [rising, partial curve].
